PubChem BioAssay AID504804 | Drosophila RNAi Screening Center | 2011
The deposit covers about 19,000 reagents; below is an unselected part of those with a known target gene and a result. Over the whole deposit, 47 (0.25%) are marked active. 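Signals are raw, not normalised; exact z-scores behind calls not deposited; actives needed confirmation, so some wells reaching 2 SD are inactive.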 A plus sign joins genes that one reagent is predicted to hit. No sequences are given here.

- Assay: 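dsRNAs that improve Kc cell survival under doxorubicin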 (primary screen)
- System: Drosophila Kc cells
- Reagents: long dsRNA against Drosophila genes, 0.5 µg dsRNA per well
- Duration: 96 h (48 h knock-down, then 48 h drug)
- Challenge: doxorubicin 5 µg/ml for 48 h, added 48 h after dsRNA
- Read-out: 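Viability measured as cellular ATP by luminescence after 48 h knock-down then 48 h doxorubicin at 5 µg/ml; unnormalised plate counts for each replicate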
- Scale: raw ATP luminescence: higher = more viable cells, protection from doxorubicin
- Rule for the call: 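Active when both duplicate wells lie at least 2 SD above the plate mean and protection is confirmed by rescreening and independent dsRNAs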

The first 2 records, ahead of the listing:
ocn (GeneID 43567) [SID104196812] — raw ATP luminescence, replicate 1: 49330; raw ATP luminescence, replicate 2: 46490; call: inactive
Cyp9b1 (GeneID 35634) [SID104187181] — raw ATP luminescence, replicate 1: 59300; raw ATP luminescence, replicate 2: 76263; call: inactive

The listing, from the start:
ocn (GeneID 43567) [SID104196812] — raw ATP luminescence, replicate 1: 49330; raw ATP luminescence, replicate 2: 46490; call: inactive
Cyp9b1 (GeneID 35634) [SID104187181] — raw ATP luminescence, replicate 1: 59300; raw ATP luminescence, replicate 2: 76263; call: inactive
laf (GeneID 40606) [SID104192038] — raw ATP luminescence, replicate 1: 54410; raw ATP luminescence, replicate 2: 56377; call: inactive
CG7130 (GeneID 40450) [SID104191589] — raw ATP luminescence, replicate 1: 59183; raw ATP luminescence, replicate 2: 46190; call: inactive
bic (GeneID 45827) [SID104187376] — raw ATP luminescence, replicate 1: 61530; raw ATP luminescence, replicate 2: 53000; call: inactive
EloB (GeneID 42435) [SID104196455] — raw ATP luminescence, replicate 1: 68570; raw ATP luminescence, replicate 2: 67870; call: inactive
CG13245 (GeneID 50456) [SID104182035] — raw ATP luminescence, replicate 1: 87120; raw ATP luminescence, replicate 2: 75107; call: inactive
Bicra (GeneID 43435) [SID104194209] — raw ATP luminescence, replicate 1: 38370; raw ATP luminescence, replicate 2: 27570; call: inactive
Swim (GeneID 37537) [SID104184126] — raw ATP luminescence, replicate 1: 61743; raw ATP luminescence, replicate 2: 61380; call: inactive
bbc (GeneID 36496) [SID104186750] — raw ATP luminescence, replicate 1: 54707; raw ATP luminescence, replicate 2: 49830; call: inactive
CG11498 (GeneID 43585) [SID104194107] — raw ATP luminescence, replicate 1: 55990; raw ATP luminescence, replicate 2: 58280; call: inactive
CG30114 (GeneID 246465) [SID104185499] — raw ATP luminescence, replicate 1: 1.54e5; raw ATP luminescence, replicate 2: 78307; call: inactive
Cdk12 (GeneID 40385) [SID104191628] — raw ATP luminescence, replicate 1: 24893; raw ATP luminescence, replicate 2: 20833; call: inactive
tobi (GeneID 43072) [SID104194227] — raw ATP luminescence, replicate 1: 60750; raw ATP luminescence, replicate 2: 55340; call: inactive
CG5567 (GeneID 39986) [SID104190309] — raw ATP luminescence, replicate 1: 25490; raw ATP luminescence, replicate 2: 32373; call: inactive
CG6040 (GeneID 42292) [SID104195746] — raw ATP luminescence, replicate 1: 41703; raw ATP luminescence, replicate 2: 52170; call: inactive
CG32111 (retired record) (GeneID 317859) [SID104188995] — raw ATP luminescence, replicate 1: 68863; raw ATP luminescence, replicate 2: 73830; call: inactive
CG32212 + hpRNA:CR33940 [SID104189410] — raw ATP luminescence, replicate 1: 60680; raw ATP luminescence, replicate 2: 80163; call: inactive
Loxl1 (GeneID 43712) [SID104194095] — raw ATP luminescence, replicate 1: 48150; raw ATP luminescence, replicate 2: 56570; call: inactive
Tusp (GeneID 43317) [SID104195630] — raw ATP luminescence, replicate 1: 31790; raw ATP luminescence, replicate 2: 41930; call: inactive
CG13326 (GeneID 36439) [SID104186155] — raw ATP luminescence, replicate 1: 63417; raw ATP luminescence, replicate 2: 53347; call: inactive
wge (GeneID 42687) [SID104195038] — raw ATP luminescence, replicate 1: 43360; raw ATP luminescence, replicate 2: 24817; call: inactive
wge (GeneID 42687) [SID104195464] — raw ATP luminescence, replicate 1: 67370; raw ATP luminescence, replicate 2: 71100; call: inactive
tRNA:Leu-CAA-2-3 (GeneID 3772601) [SID104193425] — raw ATP luminescence, replicate 1: 2.18e5; raw ATP luminescence, replicate 2: 2.00e5; call: inactive
CG18731 (GeneID 59246) [SID104195169] — raw ATP luminescence, replicate 1: 49380; raw ATP luminescence, replicate 2: 35190; call: inactive
CG14632 (retired record) (GeneID 31035) [SID104197734] — raw ATP luminescence, replicate 1: 50240; raw ATP luminescence, replicate 2: 38600; call: inactive
CG2157 (GeneID 32018) [SID104199628] — raw ATP luminescence, replicate 1: 3.84e5; raw ATP luminescence, replicate 2: 3.70e5; call: inactive
CG11345 (GeneID 38548) [SID104187968] — raw ATP luminescence, replicate 1: 77260; raw ATP luminescence, replicate 2: 81077; call: inactive
